Data on 63 compounds can be found in PubChem BioAssay AID493014 (National Center for Advancing Translational Sciences (NCATS), 2011).

Some of the results follow. Shown are side measurements of this screen, not its main read-out; they come without a call. Compounds called inactive in the main read-out are mostly missing here. The note in brackets gives the kind of curve behind each potency; many fits are weak.

The nature of this assay: qHTS Assay to Find Inhibitors of Chronic Active B-Cell Receptor Signaling. The following applies: ABC-DLBCL IkBa-CBG/CBR reporter, luminescence ratio (green luciferase fused to IkBa over red control in TMD8 lymphoma cells), 4 h. In a few lines: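 TMD8 human ABC-DLBCL cells with doxycycline-inducible IκBα–green luciferase fusion and unfused red luciferase, in 0.5% FBS medium; compounds up to 46 uM, 4 h at 37C. Green/red luminescence ratio, filter-overlap corrected, fitted to concentration-response curves.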
In general terms: Quantitative high-throughput screening tests each substance at several concentrations.

The mark [1] stands for this setting: measured here: CBR red luminescence, cell number.
Setting [2] is: measured here: IkBa-CBG green luminescence.

For `CCS(=O)(=O)N1Cc2ccccc2CC1C(=O)Nc1ccc(F)c(F)c1` (stereo unspecified), the AC50 under setting [1] is 1.78 µM [falling, full curve, poor fit]. As to `S=C(NCCN1CCOCC1)N/N=C/c1cccs1`, the half-maximal activity concentration (AC50) is 35.5 µM [falling, single point] under setting [1] and 12.6 µM [falling, partial curve] under setting [2].

Consider `C/C(CC(=O)Nc1cccc(C(F)(F)F)c1)=N\NC(=O)Cc1ccccc1`, for which the AC50 under setting [1] is 14.1 µM [falling, single point]. Still for that read-out and setting: the result for `COc1cc2c(cc1NCc1ccccn1)oc1ccccc12` reads 6.51 µM [rising, single point]; that for `COc1ccc(-n2nnc3c(SCC(=O)NCC4CCCO4)ncnc32)cc1` (stereo unspecified), 25.1 µM [falling, single point]. With `O=C1N=c2ccccc2=C1c1sc(NS(=O)(=O)Cc2ccccc2)nc1O`, the AC50 under setting [1] is 35.5 µM [falling, single point] and the AC50 under setting [2] is 31.6 µM [rising, single point].

As for `Cn1cnc2cc(OC(=O)c3ccccc3)ccc21`, under setting [1], the AC50 is 14.6 µM [rising, partial curve, poor fit].

Regarding `Cc1ccc(C(=O)NCC2(c3ccccc3)CCCC2)cc1`, the AC50 under setting [1] is 7.08 µM [rising, partial curve, poor fit]. Consider `COc1ccc(C(=O)c2sc3nc(C)cc(-c4cccs4)c3c2N)cc1OC`, for which the AC50 under setting [1] was 29.1 µM [falling, single point]. With `CCc1ccc2[nH]c(=O)c(CN(Cc3ccccc3)Cc3nnnn3Cc3ccco3)cc2c1`, the AC50 under setting [1] was 0.82 µM [falling, full curve, poor fit]. The same measure, in the same setting: the result for `CN(Cc1nc2ccccc2c(=O)[nH]1)c1ccccc1` reads 0.82 µM [rising, full curve, poor fit]. The same measure, in the same setting: as for `CCOC(=O)c1ccc2c(c1)N(CC)C(=O)c1ccccc1S2`, the figure is 22.4 µM [falling, single point]; as for `Cc1ccc(S(=O)(=O)NC(=O)COc2ccccc2)cc1`, 1 µM [rising, full curve, poor fit]. For `c1ccc2c(c1)OC(CCCN1CCCCC1)c1ccccc1S2` (stereo unspecified), under setting [1], the AC50 is 29.1 µM [falling, single point].

For `COC(=O)C1=C(O)/C(=C\c2ccc(CNC(=O)C(=O)Nc3ccc(C)cc3)o2)N=C1C`, under setting [1], the half-maximal activity concentration (AC50) is 3.16 µM [falling, partial curve, poor fit]. Turning to `COc1cc2c(c(OC)c1OC)C(c1ccc(O)cc1)CC(=O)O2` (stereo unspecified), the AC50 under setting [2] is 20.6 µM [falling, partial curve, poor fit]. Regarding `O=S(=O)(/C=C/c1ccccc1)N1CCN(c2cccc(Cl)c2)CC1`, under setting [1], the AC50 was 23.1 µM [rising, single point].

`Cc1sc(NC(=O)C2C3CCC(O3)C2C(=O)O)c(C(=O)OC(C)C)c1-c1ccc(Cl)cc1` (stereo unspecified): the half-maximal activity concentration (AC50) under setting [1] was 1.26 µM [falling, partial curve, poor fit].

Consider `COc1cc(CN2CC(=O)N(c3cccc(Cl)c3C)C2=S)cc(OC)c1OC`, for which, under setting [1], the half-maximal activity concentration (AC50) was 3.98 µM [falling, full curve]. Same read-out and setting: as for `COc1ccc(OC)c(NC(=O)CSc2ncnc3c2cnn3-c2ccccc2Cl)c1`, the figure is 5.8 µM [falling, full curve]; as for `O=C(c1ccco1)N1N=C(c2cccs2)CC1c1cc([N+](=O)[O-])ccc1O` (stereo unspecified), 8.91 µM [rising, partial curve, poor fit].

Consider `COc1ccc(-n2c(SCC(N)=O)nnc2-c2cccnc2)cc1`, for which the AC50 under setting [1] was 16.4 µM [rising, partial curve, poor fit]. The same measure, in the same setting: the result for `Cc1oc2c(cc(NS(=O)(=O)c3ccc(C(C)C)cc3)c3ccccc32)c1C(=O)O` reads 35.5 µM [falling, partial curve, poor fit]; that for `CSc1cccc(NC(=O)CCc2ccccc2)c1`, 7.94 µM [rising, partial curve, poor fit]; that for `FC(F)(F)c1cccc(-c2noc(CN3CCOCC3)n2)c1`, 35.5 µM [rising, single point].

Consider `CCNC(=O)n1nccc1C(C)Oc1ccccc1` (stereo unspecified), for which the AC50 under setting [1] was 35.5 µM [rising, partial curve, poor fit]. The same measure, in the same setting: as for `CCCCSc1nc(N)c(C#N)c(-c2cccs2)c1C#N`, the figure is 18.4 µM [falling, single point]; as for `CCOC(=O)c1c(NC(=O)C(C)OC(=O)c2ccc(NC(=O)CC#N)cc2)sc2c1CCCC2` (stereo unspecified), 29.1 µM [falling, partial curve, poor fit]; as for `COC(=O)c1sc(S(=O)(=O)Nc2ccc3cn[nH]c3c2)c(C(=O)OC)c1C`, 6.51 µM [rising, single point]. With `Cc1occc1C(=O)N/N=C/c1ccccn1`, the AC50 under setting [1] is 12.6 µM [falling, partial curve, poor fit]. In the case of `CN(c1ccccc1)S(=O)(=O)c1cccc(NC(=O)COc2cccc([N+](=O)[O-])c2)c1`, the AC50 under setting [1] is 14.6 µM [falling, partial curve]. Same read-out and setting: the result for `O=C(Nc1ccc2c(c1)OCO2)c1ccc(Br)s1` reads 25.9 µM [falling, partial curve, poor fit]; that for `CCCCNC(=O)/C=C/c1ccc(S(=O)(=O)Nc2ccc(OC)cc2)cc1`, 15.8 µM [rising, partial curve, poor fit]. Consider `COc1c2ccoc2nc2c(OC)cccc12`, for which, under setting [2], the AC50 was 18.4 µM [falling, partial curve, poor fit]. With `C/C(=N\NC(=O)C1COc2ccccc2O1)c1cccs1` (stereo unspecified), the half-maximal activity concentration (AC50) under setting [1] was 0.92 µM [rising, full curve, poor fit]. On to `Cc1ccsc1C1C(C#N)=C(N)N(N(C)C)C2=C1C(=O)CCC2` (stereo unspecified), for which the AC50 under setting [1] is 31.6 µM [falling, single point]. Consider `CN1CCc2nc(SCC(=O)Nc3ccc(F)cc3)c(C#N)cc2C1`, for which the AC50 under setting [1] is 7.31 µM [falling, partial curve]. The same measure, in the same setting: the result for `COc1cc(-n2c(N)c(C(=O)NCc3ccco3)c3nc4ccccc4nc32)cc(OC)c1OC` reads 29.1 µM [falling, single point]; that for `CC1(C)CC(Nc2ccc(Nc3ccccc3)cc2)CC(C)(C)N1`, 14.1 µM [falling, partial curve, poor fit].

`CCCc1cc(=O)oc2cc(OC3CCCCC3=O)ccc12` (stereo unspecified): the AC50 under setting [1] was 6.31 µM [rising, single point]. Same read-out and setting: as for `Cc1cc(C)c(C#N)c(N2CCN(c3ccccc3F)CC2)n1`, the figure is 4.47 µM [rising, full curve, poor fit]. For the compound `O=C(O)CSC1CC(=O)N(c2ccc(Cl)c(Cl)c2)C1=O` (stereo unspecified), the AC50 under setting [1] is 0.82 µM [falling, full curve, poor fit]. Same read-out and setting: as for `CC(=O)Nc1c(Br)cc(N2C(=O)CCC2=O)cc1Br`, the figure is 16.4 µM [falling, partial curve, poor fit]; as for `COc1ccccc1CNc1ncnc2sccc12`, 10 µM [falling, partial curve, poor fit].

Consider `O=C(NCCCN1CCOCC1)c1ccc2c(=O)n(Cc3cccc(Br)c3)c(=S)[nH]c2c1`, for which the AC50 under setting [1] is 0.1 µM [falling, full curve, poor fit]. On the same count and under the same terms, as for `Cc1ccc(-n2ncc3c(N4CCC(C(N)=O)CC4)ncnc32)cc1`, the figure is 1.41 µM [rising, partial curve, poor fit]; as for `C/C(=N/NC(=O)c1ccc(C)s1)c1ccncc1`, 5.01 µM [falling, partial curve]; as for `CCOC(=O)c1cc2c(ccn2C)n1Cc1ccccc1Cl`, 35.5 µM [rising, single point]. The same measure, in the same setting: as for `COc1cccc(Cn2c(C3CC3)nc3ccc(NC(=O)c4ccco4)cc3c2=O)c1`, the figure is 2.91 µM [rising, partial curve, poor fit]. With `O=C(NNc1ncc(C(F)(F)F)cc1Cl)c1c(Cl)cccc1Cl`, the AC50 was 22.4 µM [rising, single point] under setting [1] and 28.2 µM [falling, single point] under setting [2]. `CCN(CC)S(=O)(=O)c1ccc(NC(=O)Nc2cccc(C(F)(F)F)c2)cc1`: under setting [1], the AC50 was 29.1 µM [falling, single point]. In the case of `Cc1ccc(SCC(=O)Nc2ccc(N3CCOCC3)cc2)cc1C`, the concentration at half-maximal activity (AC50) under setting [1] is 1.84 µM [falling, partial curve, poor fit]. Still for that read-out and setting: the result for `Cc1ccc(N/C=C/c2onc(C)c2[N+](=O)[O-])cc1` reads 0.112 µM [rising, full curve, poor fit]. On the same count and under the same terms, as for `CCC1(C)CC(c2nc(-c3ccc(OC)cc3)cs2)CCS1` (stereo unspecified), the figure is 20.6 µM [rising, single point].

`C=CCNC(=S)Nc1ccc(N(C)C)cc1`: the AC50 under setting [1] was 5.62 µM [rising, single point]. Same read-out and setting: the result for `Cc1cc(F)ccc1N1CCC(N2CCN(C(C)C)C(CCO)C2)CC1` (stereo unspecified) reads 10 µM [rising, partial curve, poor fit]; that for `Cc1cc(C(=O)NCC(=O)OC(C)C(=O)N2CCOCC2)ccc1[N+](=O)[O-]` (stereo unspecified), 29.1 µM [rising, partial curve, poor fit].

For `O=C(Nc1cc2c(ccc3ccccc32)oc1=O)C1CCCCC1`, the AC50 under setting [1] was 29.1 µM [rising, single point].

For `O=c1oc2ccccc2c(O)c1/C=N/c1ncccn1`, under setting [1], the half-maximal activity concentration (AC50) is 2.82 µM [falling, partial curve, poor fit]. For the compound `CSC(=O)NC(=O)NC(=O)c1ccc([N+](=O)[O-])cc1`, under setting [1], the AC50 was 11.2 µM [rising, partial curve, poor fit]. The same measure, in the same setting: as for `CCc1ccc2[nH]c(=O)c(CN(CCN(C)C)C(=S)NCc3ccco3)cc2c1`, the figure is 31.6 µM [falling, single point]; as for `CCN(CC)S(=O)(=O)c1ccc(Cl)c(C(=O)Nc2nnc(C)s2)c1`, 11.2 µM [falling, partial curve, poor fit]; as for `CN(C)c1ccc(C(CNC(=O)COc2ccc(Cl)cc2)N2CCCC2)cc1` (stereo unspecified), 35.5 µM [falling, single point].

One may read the AC50 as the midpoint of the concentration-response curve, whichever way the signal moves.
